Experimental data from the supplement of paper PMC8728848.
The list shows a part of the results.

How the values were obtained:
Test in all cases: glycan array binding signal (z-score within array); higher = stronger binding
Details in all cases: glycan notation: IUPAC condensed, linker removed
[1] = target: Neu5Ac(a2-6)Gal(b1-4)GlcNAc(b1-6)[Gal(b1-3)]GalNAc
Outline: (§1)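 From the Consortium for Functional Glycomics database, 3228 arrays were curated, keeping only those whose protein sequence was available. Binding is given as a within-array Z-score averaged across arrays sharing a protein sequence and across linkers. Negative Z-scores can be read as non-binding.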

[2] = target: Neu5Ac(a2-6)Gal(b1-4)GlcNAc6S
Outline: as §1

[3] = target: Neu5Ac(a2-6)GalNAc
Outline: as §1

[4] = target: Neu5Ac(a2-6)GalNAc(b1-4)GlcNAc
Outline: as §1

[5] = target: Neu5Ac(a2-6)GalNAc(b1-4)GlcNAc6S
Outline: as §1

[6] = target: Neu5Ac(a2-6)GlcNAc(b1-4)GlcNAc
Outline: as §1

[7] = target: Neu5Ac(a2-6)GlcNAc(b1-4)GlcNAc(b1-4)GlcNAc
Outline: as §1

[8] = target: Neu5Ac(a2-8)Neu5Ac
Outline: as §1

[9] = target: Neu5Ac(a2-8)Neu5Ac(a2-3)Gal(b1-3)GalNAc(b1-4)[Neu5Ac(a2-3)]Gal(b1-4)Glc
Outline: as §1

[10] = target: Neu5Ac(a2-8)Neu5Ac(a2-3)Gal(b1-3)GalNAc(b1-4)[Neu5Ac(a2-8)Neu5Ac(a2-3)]Gal(b1-4)Glc
Outline: as §1

[11] = target: Neu5Ac(a2-8)Neu5Ac(a2-3)Gal(b1-4)Glc
Outline: as §1

[12] = target: Neu5Ac(a2-8)Neu5Ac(a2-3)Gal(b1-4)GlcNAc
Outline: as §1

[13] = target: Neu5Ac(a2-8)Neu5Ac(a2-3)[Gal(b1-3)GalNAc(b1-4)]Gal(b1-4)Glc
Outline: as §1

[14] = target: Neu5Ac(a2-8)Neu5Ac(a2-3)[GalNAc(b1-4)]Gal(b1-4)Glc
Outline: as §1

[15] = target: Neu5Ac(a2-8)Neu5Ac(a2-8)Neu5Ac
Outline: as §1

[16] = target: Neu5Ac(a2-8)Neu5Ac(a2-8)Neu5Ac(a2-3)Gal(b1-4)Glc
Outline: as §1

[17] = target: Neu5Ac(a2-8)Neu5Ac(a2-8)Neu5Ac(a2-3)[Gal(b1-3)GalNAc(b1-4)]Gal(b1-4)Glc
Outline: as §1

[18] = target: Neu5Ac(a2-8)Neu5Ac(a2-8)Neu5Ac(a2-3)[GalNAc(b1-4)]Gal(b1-4)Glc
Outline: as §1

[19] = target: Neu5Ac(a2-8)Neu5Ac(a2-8)Neu5Ac(a2-8)Neu5Ac(a2-3)[GalNAc(b1-4)]Gal(b1-4)Glc
Outline: as §1

[20] = target: Neu5Ac(a2-8)Neu5Gc(a2-3)Gal(b1-4)GlcNAc
Outline: as §1

[21] = target: Neu5Ac(b2-6)Gal(b1-4)GlcNAc
Outline: as §1

[22] = target: Neu5Ac(b2-6)GalNAc
Outline: as §1

[23] = target: Neu5Ac9Ac(a2-3)Gal(b1-3)GlcNAc
Outline: as §1

[24] = target: Neu5Ac9Ac(a2-3)Gal(b1-4)GlcNAc
Outline: as §1

[25] = target: Neu5Ac9Ac(a2-6)Gal(b1-4)GlcNAc
Outline: as §1

[26] = target: Neu5Gc(a2-3)Gal(b1-3)GlcNAc
Outline: as §1

[27] = target: Neu5Gc(a2-3)Gal(b1-3)[Fuc(a1-4)]GlcNAc
Outline: as §1

[28] = target: Neu5Gc(a2-3)Gal(b1-4)Glc
Outline: as §1

[29] = target: Neu5Gc(a2-3)Gal(b1-4)GlcNAc
Outline: as §1

[30] = target: Neu5Gc(a2-3)Gal(b1-4)GlcNAc(b1-3)Gal(b1-4)GlcNAc(b1-2)Man(a1-3)[Neu5Gc(a2-3)Gal(b1-4)GlcNAc(b1-3)Gal(b1-4)GlcNAc(b1-2)Man(a1-6)]Man(b1-4)GlcNAc(b1-4)GlcNAc
Outline: as §1

[31] = target: Neu5Gc(a2-3)Gal(b1-4)[Fuc(a1-3)]GlcNAc
Outline: as §1

[32] = target: Neu5Gc(a2-6)Gal(b1-4)GlcNAc
Outline: as §1

[33] = target: Neu5Gc(a2-6)GalNAc
Outline: as §1

[34] = target: Neu5Gc(a2-8)Neu5Ac(a2-3)Gal(b1-4)GlcNAc
Outline: as §1

[35] = target: Neu5Gc(a2-8)Neu5Gc(a2-3)Gal(b1-4)GlcNAc
Outline: as §1

[36] = target: Neu5Gc(a2-8)Neu5Gc(a2-3)Gal(b1-4)GlcNAc(b1-3)Gal(b1-4)GlcNAc
Outline: as §1

[37] = target: Neu5Gc(a2-8)Neu5Gc(a2-6)Gal(b1-4)GlcNAc
Outline: as §1

[38] = target: Neu5Gc(b2-6)Gal(b1-4)GlcNAc
Outline: as §1

B1: Pwp6 (Candida glabrata) (protein)
chain: MGSSHHHHHHSSGLVPRGSHMASANLPKLTNICQIPDNVKKTSGFKGEIRRIGLFPPGGDYTYLLKFPSTGSTASDTISLTTKPQLSTSGWFPSLFGHTYFIKADLLVYMVAYFVPTETGEYTFKLVNSDDAAVMYVGNPSAFPCGSIDTWPEPRKEDINVCDKISASTKLYMEKGLAYPVRLVWYNGGGDGQFNAQFIDPSGTTHTDWNGYVWQYDACTDCDYK
In the case of B1, the “glycan array binding signal (z-score)” value [1] is reported as 0.896, the “glycan array binding signal (z-score)” value [2] is reported as -0.336 and the “glycan array binding signal (z-score)” value [3] is reported as -0.898. The “glycan array binding signal (z-score)” value [4] was -0.603, the “glycan array binding signal (z-score)” value [5] was 0.14 and the “glycan array binding signal (z-score)” value [6] was 1.37. For the same binder, the “glycan array binding signal (z-score)” value [7] was -0.291, the “glycan array binding signal (z-score)” value [8] was -0.112 and the “glycan array binding signal (z-score)” value [9] was -0.035. The “glycan array binding signal (z-score)” value [10] was -0.624, the “glycan array binding signal (z-score)” value [11] was -0.511 and the “glycan array binding signal (z-score)” value [12] was -0.086. For the same binder, the “glycan array binding signal (z-score)” value [13] was -0.487, the “glycan array binding signal (z-score)” value [14] was 0.066 and the “glycan array binding signal (z-score)” value [15] was -0.376. For the same binder, the “glycan array binding signal (z-score)” value [16] was -0.193, the “glycan array binding signal (z-score)” value [17] was 0.004 and the “glycan array binding signal (z-score)” value [18] was 0.494. For the same binder, the “glycan array binding signal (z-score)” value [19] was -0.199, the “glycan array binding signal (z-score)” value [20] was -0.452 and the “glycan array binding signal (z-score)” value [21] was -0.419. For the same binder, the “glycan array binding signal (z-score)” value [22] was -0.624, the “glycan array binding signal (z-score)” value [23] was -0.646 and the “glycan array binding signal (z-score)” value [24] was -0.816. The “glycan array binding signal (z-score)” value [25] was -0.933, the “glycan array binding signal (z-score)” value [26] was -0.614 and the “glycan array binding signal (z-score)” value [27] was -0.461. The “glycan array binding signal (z-score)” value [28] was -0.283, the “glycan array binding signal (z-score)” value [29] was -0.327 and the “glycan array binding signal (z-score)” value [30] was 1.29. The “glycan array binding signal (z-score)” value [31] was -0.654, the “glycan array binding signal (z-score)” value [32] was -0.58 and the “glycan array binding signal (z-score)” value [33] was -0.745. The “glycan array binding signal (z-score)” value [34] was -0.622, the “glycan array binding signal (z-score)” value [35] was -0.427 and the “glycan array binding signal (z-score)” value [36] was -0.402. The “glycan array binding signal (z-score)” value [37] was -0.59 and the “glycan array binding signal (z-score)” value [38] was -0.499.
